Test results published in paper PMC6173745, “Aberrant expression of CITED2 promotes prostate cancer metastasis by activating the nucleolin-AKT pathway” (Nature Communications, 2018).
These are yes or no findings as the source states them, for the method shown. Binding can be weak; no strength is given. For part of these data: Binding seen in cells or lysates may run through a third protein. For part of these data: Tags and fused reporters may be left off the sequences shown. Blank lines part the entries; values can stand above or below the molecule they belong to.

Protein sequences, listed by entry. Tags and fused reporters are not part of them. Lines headed by an entry give the natural chain unless they say otherwise; changes in a name come on top.
UniProt O14744: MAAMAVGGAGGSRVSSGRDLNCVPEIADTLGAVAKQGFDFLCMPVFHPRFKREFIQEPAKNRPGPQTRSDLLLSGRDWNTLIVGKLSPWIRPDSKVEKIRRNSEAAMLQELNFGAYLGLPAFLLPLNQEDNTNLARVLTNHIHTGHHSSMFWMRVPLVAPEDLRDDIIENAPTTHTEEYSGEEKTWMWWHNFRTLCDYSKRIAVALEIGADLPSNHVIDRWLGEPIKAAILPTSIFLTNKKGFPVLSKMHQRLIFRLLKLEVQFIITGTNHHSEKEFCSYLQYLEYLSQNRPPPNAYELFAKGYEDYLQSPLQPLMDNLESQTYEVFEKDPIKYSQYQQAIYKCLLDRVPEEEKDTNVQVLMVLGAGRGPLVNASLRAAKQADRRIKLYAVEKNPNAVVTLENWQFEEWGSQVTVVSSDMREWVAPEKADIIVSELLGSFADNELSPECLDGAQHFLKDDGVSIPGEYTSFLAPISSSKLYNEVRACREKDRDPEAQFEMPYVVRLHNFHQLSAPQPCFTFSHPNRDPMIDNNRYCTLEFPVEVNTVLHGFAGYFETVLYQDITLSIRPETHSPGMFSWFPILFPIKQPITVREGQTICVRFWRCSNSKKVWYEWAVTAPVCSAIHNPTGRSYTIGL

Columns and labels:
[1] = biological target: T1, Flag/SBP-CITED2 (CBP/p300-interacting transactivator with E/D-rich carboxy-terminal domain-2) (UniProt Q99967); assay: co-IP; HEK293T cells cotransfected with tagged proteins (Flag/SBP-CITED2 or its constructs, Myc-PRMT5 or its constructs, HA-P300); immunoprecipitation with anti-Flag or anti-Myc, western blotting
T1 sequence: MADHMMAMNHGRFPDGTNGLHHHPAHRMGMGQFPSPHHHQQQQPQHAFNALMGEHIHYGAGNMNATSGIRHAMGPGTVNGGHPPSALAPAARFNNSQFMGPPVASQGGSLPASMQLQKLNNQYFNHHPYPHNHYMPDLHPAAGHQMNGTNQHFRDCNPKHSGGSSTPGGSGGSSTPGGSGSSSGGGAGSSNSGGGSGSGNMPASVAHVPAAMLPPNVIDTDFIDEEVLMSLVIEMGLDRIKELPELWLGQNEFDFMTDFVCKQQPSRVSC

[2] = biological target: T2, CITED2, endogenous (human (endogenous in HEK293T and prostate cancer cell lines)) (UniProt Q99967); assay: SEC; FPLC of lysates of HEK293T cells transfected with pcDNA or CITED2; Superdex 200 10/300 GL, 4 °C; lysis buffer 20 mM Tris/HCl pH 7.5, 150 mM NaCl, 1 mM EDTA, 0.5% NP-40; eluates immunoblotted
T2 sequence: T1 sequence

[3] = biological target: Myc-PRMT5 construct: N terminus of PRMT5; assay: co-IP; HEK293T cells cotransfected with tagged proteins (Flag/SBP-CITED2 or its constructs, Myc-PRMT5 or its constructs, HA-P300); immunoprecipitation with anti-Flag or anti-Myc, western blotting

binding [1]: binds
Molecule: Myc-PRMT5 (from UniProt O14744)

binding [2]: binds
Molecule: PRMT5, endogenous (from UniProt O14744)

binding [3]: binds
B1: Human recombinant protein CITED2 (natural protein, UniProt Q99967 1-270, looked up)
chain: T1 sequence
notes: CITED2, human, recombinant protein bought from Origene; No catalogue number, host, tag or limits are printed; source: bought: Origene
